The results in this text go back to patent US8263592B2, “Equilibrative nucleoside transporter ENT1 inhibitors” (Janssen Pharmaceutica NV, priority 2007, dated 2012).

Protein sequences, listed by entry. Tags and fused reporters are not part of them.
UniProt Q99808, whole entry: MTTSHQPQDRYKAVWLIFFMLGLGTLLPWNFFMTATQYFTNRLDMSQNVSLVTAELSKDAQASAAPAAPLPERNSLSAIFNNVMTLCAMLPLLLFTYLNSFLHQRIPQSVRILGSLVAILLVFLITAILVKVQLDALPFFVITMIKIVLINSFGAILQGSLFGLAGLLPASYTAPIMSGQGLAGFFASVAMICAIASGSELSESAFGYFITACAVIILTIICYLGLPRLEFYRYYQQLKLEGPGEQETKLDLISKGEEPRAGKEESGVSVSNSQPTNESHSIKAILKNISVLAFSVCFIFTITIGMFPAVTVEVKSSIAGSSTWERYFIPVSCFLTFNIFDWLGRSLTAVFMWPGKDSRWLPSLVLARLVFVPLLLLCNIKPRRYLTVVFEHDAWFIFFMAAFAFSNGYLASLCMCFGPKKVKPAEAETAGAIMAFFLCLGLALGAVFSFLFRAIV

Structures are written as SMILES. The structures given here were assigned with low confidence; some may be wrong.

The target in this experiment is human ENT1 transporter (Homo sapiens, UniProt Q99808). Kind of experiment: hENT1-NBMPR-ERYTH binding assay ([3H]NBMPR, human erythrocytes). The conditions noted are these: [3H]NBMPR 1 nM, washed human red blood cells 1:200, 30 minutes at room temperature; pIC50=-log(IC50).

On to `O=C1CC2(CCN(CCNC(=O)c3c(Cl)cccc3Cl)CC2)Oc2cc(NC3CCOCC3)c(Cl)cc21`, for which the “pIC50 values for ENT1 transporter inhibition” value is recorded as 8.56.
Consider `CC(=O)N1CCC(Oc2cc3c(cc2Cl)C(=O)CC2(CCN(CCNC(=O)c4c(Cl)cccc4Cl)CC2)O3)CC1` [100], for which the “pIC50 values for ENT1 transporter inhibition” value came out at 9.23.
